# Measurements: PMC9176062, “Phase Ib study of combinations of avadomide (CC‐122), CC‐223, CC‐292, and rituximab in patients with relapsed/refractory diffuse large B‐cell lymphoma” (EJHaem, 2022)
# Test system: patients with R/R DLBCL
# Assay: Treatment duration, modification, and exposure
# Assay type: in vivo
# Protocol: CC‐122 hydrochloride, referred to here as CC‐122, as an active pharmaceutical ingredient in capsule (AIC) formulation, was administered orally once daily (QD). An alternate intermittent schedule of CC‐122 QD for five of every seven consecutive days (5/7), which improved tolerability and reduced the frequency and severity of neutropenia in a study of CC‐122 monotherapy in DLBCL, was also explored. CC‐292 was administered orally twice daily (BID) and CC‐223 was administered orally QD. Rituximab was administered on day 8 of cycle 1, day 1 of cycles 2–6, and day 1 of every third cycle thereafter. Patients in arm A received CC‐122 and CC‐223 with or without rituximab (starting at CC‐122 2 mg QD and CC‐223 20 mg QD), patients in arm B received CC‐122 plus CC‐292 with or without rituximab (starting at CC‐122 2 mg QD and CC‐292 500 mg BID), patients in arm C were treated with CC‐223 and CC‐292 (starting at CC‐223 20 mg QD and CC‐292 500 mg BID), and those in arm D received CC‐122 plus rituximab (starting at CC‐122 2 mg QD). In arm D, a CC‐122 3 mg formulated capsule was introduced with the same strength as CC‐122 3 mg AIC. Each dose level was cleared before the next was started. If unacceptable toxicity occurred at the initial dose level, dose reductions for CC‐122 (1.5 mg QD and 1 mg QD) and CC‐223 (15 mg QD) were allowed; no starting dose reductions for CC‐292 were planned. For arm A, the Safety Review Committee (SRC) determined which of the two drugs in the doublet to reduce. For arms B and D, the CC‐122 dose was reduced and for arm C, the CC‐223 dose was reduced. Assignment of patients to study arms was at the discretion of the investigator and based on slot availability per the study design.
# Patients who experienced dose‐limiting toxicity (DLT) after receiving ≥1 dose of study treatment or those who received ≥80% of planned doses of CC‐122, CC‐223, CC‐292, and rituximab during cycle 1 without experiencing a DLT were considered DLT‐evaluable. If zero out of ≥3 or ≤1 out of six evaluable patients in a cohort experienced a DLT during cycle 1 in parallel dose cohorts, then dose escalation could occur. DLTs are defined in the Supplementary Materials; individual investigators performed response assessments and determined DLTs. The NTD was defined as the dose level at which ≥2 of six evaluable patients in a cohort experienced a DLT during cycle 1. […] During cycle 1, any adverse event (AE) that led to dose reduction was considered a DLT. Patients could resume CC‐122 at a reduced dose only if they recovered to grade ≤1 within 14 days of dose interruption; two dose reductions were allowed before the patient was withdrawn from the study. Dose reductions were permitted for CC‐122, CC‐223, and CC‐292; no dose reductions were allowed for rituximab, but treatment could be discontinued at the discretion of the investigator. […] For arms A, B, and D, CC‐122 dosing was modified to the intermittent 5/7‐day schedule based on SRC review and escalated until the MTD/RP2D was established. Treatment was given until disease progression, unacceptable toxicity, or patient/physician decision to withdraw consent.
# ^aTreatment duration defined as date of last derived dose – date of first dose + 1.
# ^bDefined as the ratio of actual dose received to planned dose over the treatment period.
# [1] = Overall (all arms with the drug)
# [2] = Overall (all arms with the drug), listed as Avadomide
# [3] = Overall (all arms with the drug), listed as CC-223
# [4] = Overall (all arms with the drug), listed as CC-292
Compound,Median duration of the drug (range) (Arm A (Avadomide + CC-223 ± R)),Median no. of cycles (range) (Arm A (Avadomide + CC-223 ± R)),Median relative dose intensity (range) (Arm A (Avadomide + CC-223 ± R)),Median duration of the drug (range) (Arm B (Avadomide + CC-292 ± R)),Median no. of cycles (range) (Arm B (Avadomide + CC-292 ± R)),Median relative dose intensity (range) (Arm B (Avadomide + CC-292 ± R)),Median duration of the drug (range) [1] [days],Median no. of cycles (range) [1],Median relative dose intensity (range) [1],Median duration of the drug (range) (Arm C (CC-292 + CC-223)),Median no. of cycles (range) (Arm C (CC-292 + CC-223)),Median relative dose intensity (range) (Arm C (CC-292 + CC-223)),other results
"Cc1nc2cccc(N)c2c(=O)n1C1CCC(=O)NC1=O (stereo not drawn) [CC‐122, Avadomide]",72.0 (12-941) days,2 (0-33),1.0 (0.7-1.0),56.0 (10-765) days,2 (0-24),1.0 (0.6-1.0),56,2 (0-33),1.0,–,–,–,Median duration of the drug (range) (Arm D (Avadomide + R)): 47.5 (7-605) days; Median no. of cycles (range) (Arm D (Avadomide + R)): 1 (0-21); Median relative dose intensity (range) (Arm D (Avadomide + R)): 1.0 (0.5-1.0); Median duration of the drug (range) [2]: 56.0 (7-941) days; Median relative dose intensity (range) [2]: 1.0 (0.5-1.0)
CO[C@H]1CC[C@H](N2C(=O)CNc3ncc(-c4ccc(C(C)(C)O)nc4)nc32)CC1 [CC‐223],68.0 (12-937) days,2 (0-33),1.0 (0.7-1.0),–,–,–,56,2 (0-33),1.0,35.5 (7-112) days,1 (0-3),1.0 (0.6-1.0),Median duration of the drug (range) [3]: 56.0 (7-937) days; Median relative dose intensity (range) [3]: 1.0 (0.6-1.0)
C=CC(=O)Nc1cccc(Nc2nc(Nc3ccc(OCCOC)cc3)ncc2F)c1 [CC‐292],–,–,–,56.0 (12-542) days,2 (0-18),1.0 (0.6-1.0),56,2 (0-18),1.0,35.5 (7-233) days,1 (0-8),1.0 (0.6-1.0),Median duration of the drug (range) [4]: 56.0 (7-542) days; Median relative dose intensity (range) [4]: 1.0 (0.6-1.0)
